Measured values reported in paper PMC6345774, “Kinetic and thermodynamic effects of phosphorylation on p53 binding to MDM2” (Scientific Reports, 2019).
Results are given in words; binding and its absence hold for the method and conditions named. Values belong to the binder of their own block, whether it stands above or below them.

Chains of the proteins cited; added tags and fusions are not shown. Residues count along the entry.
UniProt Q00987, residues 2-125: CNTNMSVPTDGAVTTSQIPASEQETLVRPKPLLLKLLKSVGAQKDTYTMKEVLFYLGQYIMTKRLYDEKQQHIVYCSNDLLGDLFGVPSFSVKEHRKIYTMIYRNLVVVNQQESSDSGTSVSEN

Experiments:
[1] = target: Ac-EeFd…-NH2 (P53-E18-D20) (human); assay: 1D 1H-NMR line width; isolated peptide 1.5–2 mM, 10 °C, pH 4.5 (50 mM acetate buffer); line width as expected from the molecular weight; both purified
[2] = target: Ac-EeFe…-NH2 (P53-E18-E20) (human); assay: as above
[3] = target: Ac-ETFe…-NH2 (P53-E20) (human); assay: as above
[4] = target: Ac-EeFdDLWeeLPEN-NH2 (P53-E18-D20-E24-E25) (human); assay: as above
[5] = target: T1, human MDM2 (residues 2–125) (human, UniProt Q00987 2-125); assay: condition: peptide 0.125 μM, MDM2 typically 1 μM to 3 μM; stopped-flow fluorescence; pseudo-first order, peptide 0.125 μM final, MDM2 in excess (typically 1 μM to 3 μM); Trp23 fluorescence, excitation 280 nm, 315 nm cut-off; 15 °C; 50 mM Tris-HCl pH 8.0, 250 mM NaCl, 0.5 mM TCEP; Kd as koff/kon assuming a two-state reaction; both purified
T1 construct: MDM2 (murine double minute 2), human, N-terminal domain, residues 2-125; no tag is named; also called N-terminal domain of MDM2

[6] = target: Ac-Ed…-NH2 (P53-D18) (human); assay: 1D 1H-NMR line width; isolated peptide 1.5–2 mM, 10 °C, pH 4.5 (50 mM acetate buffer); line width as expected from the molecular weight; both purified
[7] = target: Ac-Ee…-NH2 (P53-E18) (human); assay: as above

Binder: ETFEDLWKLLPEN (N-terminal acetyl; C-terminal amide) [Ac-ETFe…-NH2 (P53-E20)]
binding [3]: no binding (tested: 1.5–2 mM)

Binder: EEFDDLWEELPEN (N-terminal acetyl; C-terminal amide) [Ac-EeFdDLWeeLPEN-NH2 (P53-E18-D20-E24-E25)]
binding [4]: no binding (tested: 1.5–2 mM)
binding [5]: no binding

Binder: EDFSDLWKLLPEN (N-terminal acetyl; C-terminal amide) [Ac-Ed…-NH2 (P53-D18)]
binding [6]: no binding (tested: 1.5–2 mM)

Other lines, results leading:

binding [1]: no binding (tested: 1.5–2 mM)
Binder: EEFDDLWKLLPEN (N-terminal acetyl; C-terminal amide) [Ac-EeFd…-NH2 (P53-E18-D20)]

binding [2]: no binding (tested: 1.5–2 mM)
Binder: EEFEDLWKLLPEN (N-terminal acetyl; C-terminal amide) [Ac-EeFe…-NH2 (P53-E18-E20)]

binding [7]: no binding (tested: 1.5–2 mM)
Binder: EEFSDLWKLLPEN (N-terminal acetyl; C-terminal amide) [Ac-Ee…-NH2 (P53-E18)]
